Results are given in words; binding and its absence hold for the method and conditions named. Binding seen in cells or lysates may run through a third protein. Some entries that bind do so weakly or less than the wild type. Sequences can lack the tags named with a protein.
Experiments:
[1] = molecular target: T1, U20 expressed in U373 cells (HHV-6B) (UniProt Q9QJ46); assay: co-IP; U373 cells co-expressing U20 and HA-ULBP1; 1% digitonin lysis buffer; IP with anti-U20 (MCW53) or anti-HA (HA.11); immunoblot
T1 sequence: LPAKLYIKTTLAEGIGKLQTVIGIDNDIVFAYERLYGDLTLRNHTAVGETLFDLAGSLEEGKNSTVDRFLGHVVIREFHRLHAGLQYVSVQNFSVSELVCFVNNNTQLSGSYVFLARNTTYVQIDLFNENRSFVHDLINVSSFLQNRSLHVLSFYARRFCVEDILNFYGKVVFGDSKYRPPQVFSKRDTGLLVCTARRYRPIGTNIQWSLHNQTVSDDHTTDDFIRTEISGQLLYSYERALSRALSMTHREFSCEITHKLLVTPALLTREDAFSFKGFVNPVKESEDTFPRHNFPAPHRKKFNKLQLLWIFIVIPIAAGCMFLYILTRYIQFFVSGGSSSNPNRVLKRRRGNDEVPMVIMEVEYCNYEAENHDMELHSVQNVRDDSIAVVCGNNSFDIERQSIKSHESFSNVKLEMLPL

[2] = molecular target: T2, N-terminally HA-tagged ULBP1 (UniProt Q9BZM6); assay: as above
T2 sequence: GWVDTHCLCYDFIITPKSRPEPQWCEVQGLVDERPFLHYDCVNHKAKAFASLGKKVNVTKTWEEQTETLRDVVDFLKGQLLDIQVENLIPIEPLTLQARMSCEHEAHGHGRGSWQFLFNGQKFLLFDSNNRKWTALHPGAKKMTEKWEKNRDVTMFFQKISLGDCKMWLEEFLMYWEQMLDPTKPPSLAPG

B1: N-terminally HA-tagged ULBP1 (protein, UniProt Q9BZM6 26-216)
chain: T2 sequence
binding [1]: binds

B2: U20 expressed in U373 cells (protein, UniProt Q9QJ46 16-434)
chain: T1 sequence
binding [2]: binds

Reference: article PMC11215065
